Drawing on PubChem BioAssay AID1487 (National Center for Advancing Translational Sciences (NCATS), 2009), this text covers AC50 for 35 molecules.

The other results are listed elsewhere or left out. The main result of the screen is listed elsewhere. These columns were measured beside it and carry no call. Most of these compounds were active or inconclusive in the main read-out, so they are no random draw. Words in brackets tell the shape of the fitted curve; partial curves, single points and poor fits give uncertain potencies.

The test is described as follows: qHTS Assay for Modulators of Lamin A Splicing. Conditions: HeLa LMNA splicing GFP/RFP minigene ratio, 48 h. The method in brief: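 S3 HeLa stable clones carrying a lamin A-EGFP splicing minigene plus DsRed2 were seeded at 600 cells/well in Opti-MEM with 2% FBS, pin-dosed and incubated 48 h at 37°C. Acumen cytometry (488 nm) gave the GFP/RFP total-intensity ratio.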
Background: qHTS replaces the single test concentration by a dilution series.

Setting [1] is: measured here: GFP splicing reporter channel.
The mark [2] stands for this setting: measured here: RFP viability control channel.

Regarding `COc1ccc(-c2nnc(Nc3nc4c(OC)cccc4s3)o2)c(OC)c1`, the AC50 was 22.4 µM [falling, single point] under setting [1] and 28.2 µM [falling, single point] under setting [2].

For `CCn1c(C(=O)N2CCc3ccccc3C2)cc2oc3ccccc3c21`, under setting [2], the AC50 is 14.1 µM [rising, single point].

As to `CN1c2ccccc2C(C)(C)[C@]12C=Cc1cc(O)ccc1O2`, under setting [2], the AC50 is 25.1 µM [rising, single point].

On to `Cc1ccc(S(=O)(=O)N(C)Cc2ccc(C(=O)N/N=C/c3ccc(OC(F)F)cc3OC(F)F)cc2)cc1`, for which the AC50 runs as follows: under setting [1], 10 µM [rising, partial curve]; under setting [2], 7.94 µM [rising, partial curve].

Turning to `C=CCSC1=NC(=O)/C(=C/c2cccs2)S1`, under setting [1], the AC50 is 11.2 µM [rising, partial curve, poor fit].

As for `O=C(COc1ccc2ccc(=O)oc2c1)OCc1ccccc1`, the AC50 is 0.794 µM [rising, partial curve] under setting [1] and 0.794 µM [rising, full curve, poor fit] under setting [2].

Regarding `CCc1c(C)nc(Nc2nc(C)c3cc(OC)ccc3n2)[nH]c1=O`, the AC50 is, setting by setting: under setting [1], 1.41 µM [rising, full curve, poor fit]; under setting [2], 3.16 µM [rising, full curve].

As for `CCOC(=O)c1c(C)[nH]c(CCC(=O)NCc2cc(Br)ccc2OC)c1C`, the AC50 was 17.8 µM [falling, single point] under setting [1] and 15.8 µM [falling, partial curve, poor fit] under setting [2].

Regarding `CCOC(=O)Cc1cc(=O)n2[nH]c(C)c(-c3ccc(Cl)cc3)c2n1`, the AC50 by setting is: under setting [1], 17.8 µM [falling, partial curve]; under setting [2], 35.5 µM [falling, single point].

As for `CC(C)C(=O)N1CCN(c2ccccc2NC(=O)Cc2ccc(Cl)cc2)CC1`, the AC50 is 12.6 µM [rising, single point] under setting [1] and 22.4 µM [rising, single point] under setting [2].

As to `COc1ccc(C(=O)NC(Nc2ccc(C)cc2)C(Cl)(Cl)Cl)cc1` (stereo not drawn), the AC50 is 8.91 µM [rising, partial curve, poor fit] under setting [1] and 12.6 µM [rising, partial curve] under setting [2].

In the case of `COC(=O)c1cc(NC(=O)c2cccc(F)c2)cc(C(=O)OC)c1`, the AC50 under setting [2] is 0.00355 µM [rising, full curve, poor fit].

As for `c1ccc(OCCCCn2cnc3ccccc32)cc1`, under setting [2], the AC50 was 12.6 µM [rising, partial curve].

Turning to `N#C/C(=N\Nc1ccc(Cl)cc1)C(=O)c1ccccc1`, under setting [2], the AC50 is 5.01 µM [rising, single point].

For `Cc1ccc(C(=O)N2CCC(Cc3ccccc3)CC2)cc1[N+](=O)[O-]`, the AC50 under setting [1] is 35.5 µM [falling, single point].

Regarding `CCc1cc2cc(C(=O)N3CCN(Cc4ccccc4)CC3)sc2s1`, the AC50 under setting [1] is 12.6 µM [rising, partial curve] and the AC50 under setting [2] was 28.2 µM [rising, single point].

Turning to `COc1ccc(C(C)=O)cc1COc1ccccc1[N+](=O)[O-]`, under setting [2], the AC50 is 35.5 µM [rising, single point].

Turning to `Cc1nc2ccccc2n1S(=O)(=O)c1ccc(Br)cc1`, the AC50 under setting [2] is 31.6 µM [rising, single point].

In the case of `CC(Nc1ncnc2nc[nH]c12)c1ccccc1` (stereo not drawn), the AC50 reads like this: under setting [1], 31.6 µM [rising, single point]; under setting [2], 35.5 µM [rising, single point].

As to `CCc1ccc(C(CNC(=O)c2ccc3c(=O)n(-c4ccccc4F)c(=S)[nH]c3c2)N(C)C)cc1` (stereo not drawn), the AC50 under setting [1] was 35.5 µM [falling, single point].

Regarding `Cc1cc(C)n(-c2nnc(C)n2/N=C/c2ccccc2OCc2ccccc2Cl)n1`, the AC50 under setting [1] is 12.6 µM [falling, single point] and the AC50 under setting [2] is 12.6 µM [falling, partial curve].

With `CCOC(=O)O[C@]1(C(=O)COC(=O)CC)CC[C@@H]2[C@@H]3CCC4=CC(=O)C=C[C@@]4(C)[C@H]3[C@H](O)C[C@]21C`, under setting [2], the AC50 was 0.00447 µM [rising, full curve, poor fit].

For the molecule `Cc1cc(C)c2c(CC(=O)NCc3ccco3)coc2c1`, the AC50 under setting [2] was 17.8 µM [rising, partial curve, poor fit].

As to `CC(C)(C)C(=O)Nc1ccc(C(=O)NNC(=O)c2ccccc2)cc1`, under setting [2], the AC50 is 1.26 µM [falling, single point].

Take `COc1ccc(N2C(=NC(C)=O)SC3CS(=O)(=O)CC32)cc1OC` (stereo not drawn): the AC50 under setting [2] is 3.16 µM [rising, single point].

With `CCCCC(=Nc1ccccc1OC)C1=C(O)CC(c2ccccc2)CC1=O` (stereo not drawn), under setting [2], the AC50 was 31.6 µM [rising, single point].

In the case of `Cc1c(Cl)cccc1N(Cc1ccc(C(=O)O)cc1)S(=O)(=O)c1ccccc1`, the AC50 under setting [2] is 35.5 µM [rising, single point].

As to `CC1CCCC(NCC(=O)Nc2ccc(C(N)=O)cc2)C1C` (stereo not drawn), the AC50 under setting [2] was 4.47 µM [falling, full curve, poor fit].

For `CCOC(=O)C1(Cc2cccc(F)c2)CCN(C(=O)C2CCC2)CC1`, the AC50 under setting [1] is 0.00447 µM [falling, full curve, poor fit].

Turning to `CC(C)Oc1cccc(C(=O)C2CCCN(Cc3ccc(Oc4ncccn4)cc3)C2)c1` (stereo not drawn), the AC50 is, setting by setting: under setting [1], 35.5 µM [falling, single point]; under setting [2], 35.5 µM [falling, partial curve, poor fit].

For `CC(C)(C)Nc1nc(Cl)nc(NC(C)(C)C)n1`, the AC50 under setting [2] is 0.0112 µM [rising, full curve, poor fit].

For `CC(C)NCC(O)c1cc(O)cc(O)c1` (stereo not drawn), under setting [2], the AC50 was 5.62 µM [falling, single point].

Consider `Cc1ccc2nc(NC(=O)C3CCCN(S(=O)(=O)c4cccc5nsnc45)C3)sc2c1` (stereo not drawn), for which the AC50 is 14.1 µM [rising, partial curve, poor fit] under setting [1] and 20 µM [rising, partial curve] under setting [2].

Take `O=C(N/N=C/c1ccc(Sc2nc3ccccc3[nH]2)o1)c1ccncc1`: under setting [2], the AC50 was 22.4 µM [rising, single point].

For the molecule `Cc1cc2cc(CN(CC3CCCO3)C(=O)c3cnccn3)c(=O)[nH]c2cc1C` (stereo not drawn), the AC50 under setting [2] was 12.6 µM [rising, single point].

As usually defined, the AC50 is the midpoint of the concentration-response curve, whichever way the signal moves.
